Results are given in words; binding and its absence hold for the method and conditions named. A result given as binding can be weak or reduced; the word gives no strength.
Target: σ^SsdA (AMIS_54240) (Actinoplanes missouriensis) (UniProt I0HCA7)
Test: two-hybrid; bacterial adenylate cyclase-based two-hybrid (BACTH, Euromedex) in E. coli BTH101; T25 fusions in pKT25 and T18 fusions in pUT18C; cultures with IPTG at 30 °C for 48 h; β-galactosidase activity (Miller units) against empty vectors

binding: binds
Substance: SipA (SsdA inhibitor protein, AMIS_54230) (from UniProt I0HCA6)

Reference: paper PMC10733313
